The text below walks through data of the supplement of paper PMC6658780.

Counter-ions that a name gives are not always drawn. ± gives the standard deviation of the averaged measurements. The list shows a part of the results. Single values are uncertain here, since repeats match poorly.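 The A. baumannii clinical isolates were selected for resistance to the partner antibiotic; the screen seeks drugs that restore its effect. Background from coloured compounds is removed by subtracting the start-of-incubation reading.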

For assay [1], the system named is Acinetobacter baumannii NCTC-13301. Kind of assay: percent growth inhibition of drug alone vs DMSO control; higher = more growth inhibition. The conditions noted are these: antibiotic (0.125x MIC): none (0.1% DMSO).
For assay [2] the test system is unchanged. Kind of assay: percent growth inhibition of drug + antibiotic vs DMSO control; higher = more growth inhibition.
In assay [3] the test system is Acinetobacter baumannii WP-487. Kind of assay: percent growth inhibition of drug alone vs DMSO control; higher = more growth inhibition. The conditions noted are these: antibiotic (0.125x MIC): none (0.1% DMSO).
Setting [4] is: antibiotic (0.125x MIC): ciprofloxacin, 7 µM.
The mark [5] stands for this setting: antibiotic (0.125x MIC): ciprofloxacin, 20 µM.
[6] abbreviates: antibiotic (0.125x MIC): meropenem, 7 µM.
Where [7] appears, read: antibiotic (0.125x MIC): meropenem, 20 µM.
Setting [8] is: antibiotic (0.125x MIC): tigecycline, 7 µM.
[9] abbreviates: antibiotic (0.125x MIC): tigecycline, 20 µM.
Setting [10] is: antibiotic (0.125x MIC): gentamicin, 7 µM.
The mark [11] stands for this setting: antibiotic (0.125x MIC): gentamicin, 20 µM.

With `C[C@@H](O[C@H]1OCCN(Cc2n[nH]c(=O)[nH]2)[C@H]1c1ccc(F)cc1)c1cc(C(F)(F)F)cc(C(F)(F)F)c1` [Aprepitant], the “percent growth inhibition of drug alone” value in assay [1] (7 µM) was -9.08 ± 11%; in assay [1] (20 µM) it was -68.7 ± 45%. Further, the percent growth inhibition in assay [2] (setting [4]) was -7.03 ± 9.3%; in assay [2] (setting [5]) it was -30.4 ± 19%; in assay [2] (setting [6]) it was -0.828 ± 6.2%; in assay [2] (setting [7]) it was -22.1 ± 8.8%; in assay [2] (setting [8]) it was -8.16 ± 7.3%; in assay [2] (setting [9]), -37.7 ± 38%.
Take `CCCCC[C@H](O)/C=C/[C@@H]1[C@@H](C/C=C\CCCC(=O)O)[C@@H](O)C[C@H]1O` [Dinoprost trometamol]: the figures for the “percent growth inhibition of drug alone” value in assay [1] (7 µM) and in assay [1] (20 µM) were -0.267 ± 1.3% and -70.4 ± 70%, respectively. In addition, the percent growth inhibition in assay [2] (setting [4]) was 4.09 ± 8.5%; in assay [2] (setting [5]) it was -1.13 ± 7.6%; in assay [2] (setting [10]), -4.95 ± 6.8%; in assay [2] (setting [11]), -5.33 ± 6.1%; in assay [2] (setting [6]), 2.81 ± 2.7%; in assay [2] (setting [7]), 4.64 ± 8.8%. The percent growth inhibition in assay [2] (setting [8]) is -2.55 ± 2.7%; in assay [2] (setting [9]), 1.25 ± 0.76%.
Take `Cc1ccc(C(=O)c2cc(O)c(O)c([N+](=O)[O-])c2)cc1` [Tolcapone]: the “percent growth inhibition of drug alone” value is 1.72 ± 1.5% in assay [1] (7 µM) and -14.1 ± 18% in assay [1] (20 µM). For the same compound, the values for the percent growth inhibition in assay [2] (setting [10]) and in assay [2] (setting [11]) were 3.36 ± 1.3% and 4.51 ± 4.5%, respectively.
`CCC1=C(C)CN(C(=O)NCCc2ccc(S(=O)(=O)NC(=O)N[C@H]3CC[C@H](C)CC3)cc2)C1=O` [Glimepiride]: the “percent growth inhibition of drug alone” value is -2.07 ± 9.2% in assay [1] (7 µM) and -0.319 ± 1.4% in assay [1] (20 µM). The percent growth inhibition was 7.68 ± 27% in assay [2] (setting [6]) and -6.61 ± 12% in assay [2] (setting [7]).
As for `CCOc1ccc2ccccc2c1C(=O)N[C@@H]1C(=O)N2[C@@H]1SC(C)(C)[C@@H]2C(=O)O` [Nafcillin sodium salt monohydrate], the entries for the “percent growth inhibition of drug alone” value in assay [1] (7 µM) and in assay [1] (20 µM) were -3.07 ± 2.4% and -15.4 ± 21%, respectively. Further, the percent growth inhibition in assay [2] (setting [10]) was 0.142 ± 0.42%; in assay [2] (setting [11]) it was -3.22 ± 6%.
With `O=C(c1ccc(OCCN2CCCCC2)cc1)c1c(-c2ccc(O)cc2)sc2cc(O)ccc12` [Raloxifene hydrochloride], the “percent growth inhibition of drug alone” value in assay [1] (7 µM) is 4.28 ± 5.3%; in assay [1] (20 µM) it was -16.1 ± 18%. For the same compound, the percent growth inhibition in assay [2] (setting [8]) is -2.56 ± 2.1%; in assay [2] (setting [9]), -28 ± 65%.
Regarding `CC[C@H]1OC(=O)[C@H](C)[C@@H](O[C@H]2C[C@@](C)(OC)[C@@H](O)[C@H](C)O2)[C@H](C)[C@@H](O[C@@H]2O[C@H](C)C[C@H](N(C)C)[C@H]2O)[C@](C)(O)C[C@@H](C)CN(C)[C@H](C)[C@@H](O)[C@]1(C)O` [Azithromycin], the “percent growth inhibition of drug alone” value in assay [1] (7 µM) was determined as 42.5 ± 6.3%; in assay [1] (20 µM), 100.7 ± 0.81%. The percent growth inhibition in assay [2] (setting [6]) is 73.4 ± 3.4%; in assay [2] (setting [7]), 101.1 ± 0.48%.
With `Cc1c(O)cccc1C(=O)N[C@@H](CSc1ccccc1)[C@H](O)CN1C[C@H]2CCCC[C@H]2C[C@H]1C(=O)NC(C)(C)C` [Nelfinavir mesylate], the “percent growth inhibition of drug alone” value in assay [1] (7 µM) was 3.71 ± 0.76%; in assay [1] (20 µM) it was -11.5 ± 23%; in assay [3] (7 µM) it was 3.44 ± 2.1%; in assay [3] (20 µM) it was 1.66 ± 1.5%. Moreover, the percent growth inhibition in assay [2] (setting [10]) was 5.84 ± 0.78%; in assay [2] (setting [11]), 2.22 ± 2%; in assay [2] (setting [8]) it was 0.852 ± 2.4%; in assay [2] (setting [9]), 20.2 ± 5.1%.
Turning to `Oc1c(Cl)cc(Cl)c(Cl)c1Cc1c(O)c(Cl)cc(Cl)c1Cl` [Hexachlorophene], the “percent growth inhibition of drug alone” value in assay [1] (7 µM) turned out to be 52.2 ± 12%; in assay [1] (20 µM), 89.6 ± 15%. Besides, the percent growth inhibition is 81.5 ± 4.2% in assay [2] (setting [6]) and 101 ± 0.34% in assay [2] (setting [7]).
Regarding `CN(C(=O)CN(CCO)CC(=O)N(C)C(C)(C)Cc1ccccc1)C(C)(C)Cc1ccccc1` [Oxethazaine], the entries for the “percent growth inhibition of drug alone” value in assay [1] (7 µM) and in assay [1] (20 µM) were 3.03 ± 2.4% and -32 ± 20%, respectively. The percent growth inhibition was -3.25 ± 0.34% in assay [2] (setting [4]); 19 ± 5.7% in assay [2] (setting [5]); -36.3 ± 34% in assay [2] (setting [10]); -14.5 ± 1.2% in assay [2] (setting [11]); -4.3 ± 8.6% in assay [2] (setting [6]); -3.74 ± 8.1% in assay [2] (setting [7]). The values for the percent growth inhibition in assay [2] (setting [8]) and in assay [2] (setting [9]) were 6.41 ± 2.9% and 20.5 ± 0.31%, respectively.
For `Cc1cc(C(C)(C)CC(C)(C)C)ccc1OCCOCC[N+](C)(C)Cc1ccccc1` [Methyl benzethonium chloride], the “percent growth inhibition of drug alone” value in assay [1] (7 µM) was -11.7 ± 16%; in assay [1] (20 µM), 37 ± 9.6%. Moreover, the percent growth inhibition was 0.936 ± 9.6% in assay [2] (setting [10]), 24.6 ± 28% in assay [2] (setting [11]), -1.53 ± 2.1% in assay [2] (setting [6]) and 71.4 ± 41% in assay [2] (setting [7]).
Take `CC1(C)[C@H](C(=O)O)N2C(=O)C[C@H]2S1(=O)=O` [Sulbactam]: the “percent growth inhibition of drug alone” value was -1.41 ± 0.68% in assay [1] (7 µM) and 13.9 ± 8% in assay [1] (20 µM). Besides, the percent growth inhibition in assay [2] (setting [6]) is 23.2 ± 3.7%; in assay [2] (setting [7]) it was 91.6 ± 12%.
For `CCOC(=O)Nc1ccc2c(c1)N(C(=O)CCN1CCOCC1)c1ccccc1S2` [Moricizine hydrochloride], the “percent growth inhibition of drug alone” value was -9.53 ± 15% in assay [1] (7 µM) and -0.082 ± 6.6% in assay [1] (20 µM). In addition, the percent growth inhibition in assay [2] (setting [4]) was 4.8 ± 17%; in assay [2] (setting [5]), 2.88 ± 14%; in assay [2] (setting [10]), -0.00367 ± 19%; in assay [2] (setting [11]), 1.31 ± 11%; in assay [2] (setting [6]), 7.29 ± 21%; in assay [2] (setting [7]) it was -1.17 ± 13%.
`COc1c(N2CCNC(C)C2)c(F)cc2c(=O)c(C(=O)O)cn(C3CC3)c12` (centres undefined) [Gatifloxacin]: the “percent growth inhibition of drug alone” value was 6.31 ± 9.6% in assay [1] (7 µM) and 8.44 ± 0.39% in assay [1] (20 µM). Moreover, the results for the percent growth inhibition in assay [2] (setting [4]) and in assay [2] (setting [5]) were 9.04 ± 4.6% and 53.4 ± 14%, respectively.
Regarding `O=c1cc(-c2ccc(O)c(O)c2)oc2cc(O)cc(O)c12` [Luteolin], the “percent growth inhibition of drug alone” value in assay [1] (7 µM) was -2.57 ± 5.6%; in assay [1] (20 µM), -32.5 ± 30%. The percent growth inhibition in assay [2] (setting [4]) was 1.42 ± 5.6%; in assay [2] (setting [5]) it was -0.781 ± 1.8%; in assay [2] (setting [10]), -0.497 ± 4.9%; in assay [2] (setting [11]) it was -0.973 ± 5.2%; in assay [2] (setting [6]) it was 5.72 ± 9.8%; in assay [2] (setting [7]), -4.43 ± 2.7%. The percent growth inhibition was 4.4 ± 0.39% in assay [2] (setting [8]) and -1.25 ± 2.2% in assay [2] (setting [9]).
Regarding `NCCc1c[nH]cn1` [Histamine dihydrochloride], the “percent growth inhibition of drug alone” value was -1.11 ± 5.2% in assay [1] (7 µM) and 15.9 ± 9.9% in assay [1] (20 µM). Further, the percent growth inhibition is -2.96 ± 2.3% in assay [2] (setting [6]) and 93.9 ± 9.1% in assay [2] (setting [7]).
For the compound `COC(=O)C1=C(C)NC(C)=C(C(=O)OCC(C)C)C1c1ccccc1[N+](=O)[O-]` (centres undefined) [Nisoldipine], the results for the “percent growth inhibition of drug alone” value in assay [1] (7 µM) and in assay [1] (20 µM) were 11.4 ± 5.6% and -17.8 ± 33%, respectively. The percent growth inhibition was -1.96 ± 4.6% in assay [2] (setting [8]) and -2.51 ± 0.4% in assay [2] (setting [9]).
Regarding `COc1c(N2C[C@@H]3CCCN[C@@H]3C2)c(F)cc2c(=O)c(C(=O)O)cn(C3CC3)c12` [Moxifloxacin], the “percent growth inhibition of drug alone” value in assay [1] (7 µM) turned out to be 2.29 ± 1.1%; in assay [1] (20 µM), 14.8 ± 3.1%. Besides, the percent growth inhibition in assay [2] (setting [4]) was 16.7 ± 3.8%; in assay [2] (setting [5]) it was 76.1 ± 5.8%.
